Reference: the supplement of paper PMC12823440, “Inhibitors supercharge kinase turnover through native proteolytic circuits” (Nature, 2025)
Counter-ions that a name gives are not always drawn. The list shows a part of the results. Hit calls seldom repeat between salt and free forms of one compound.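 In K562 cells expressing nanoluciferase-fused kinases, luminescence was recorded at 4 h intervals between 2 and 18 h, normalized as percent of control with DMSO at 100% and a positive control at 0%. A significant (2 sigma) signal drop marks a time point as decreased. The authors' rule for a hit is not shown and takes in more than the number of time points.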

By UniProt entry, the sequences of proteins in these tests, tags left out.
UniProt Q15303, whole entry R711C: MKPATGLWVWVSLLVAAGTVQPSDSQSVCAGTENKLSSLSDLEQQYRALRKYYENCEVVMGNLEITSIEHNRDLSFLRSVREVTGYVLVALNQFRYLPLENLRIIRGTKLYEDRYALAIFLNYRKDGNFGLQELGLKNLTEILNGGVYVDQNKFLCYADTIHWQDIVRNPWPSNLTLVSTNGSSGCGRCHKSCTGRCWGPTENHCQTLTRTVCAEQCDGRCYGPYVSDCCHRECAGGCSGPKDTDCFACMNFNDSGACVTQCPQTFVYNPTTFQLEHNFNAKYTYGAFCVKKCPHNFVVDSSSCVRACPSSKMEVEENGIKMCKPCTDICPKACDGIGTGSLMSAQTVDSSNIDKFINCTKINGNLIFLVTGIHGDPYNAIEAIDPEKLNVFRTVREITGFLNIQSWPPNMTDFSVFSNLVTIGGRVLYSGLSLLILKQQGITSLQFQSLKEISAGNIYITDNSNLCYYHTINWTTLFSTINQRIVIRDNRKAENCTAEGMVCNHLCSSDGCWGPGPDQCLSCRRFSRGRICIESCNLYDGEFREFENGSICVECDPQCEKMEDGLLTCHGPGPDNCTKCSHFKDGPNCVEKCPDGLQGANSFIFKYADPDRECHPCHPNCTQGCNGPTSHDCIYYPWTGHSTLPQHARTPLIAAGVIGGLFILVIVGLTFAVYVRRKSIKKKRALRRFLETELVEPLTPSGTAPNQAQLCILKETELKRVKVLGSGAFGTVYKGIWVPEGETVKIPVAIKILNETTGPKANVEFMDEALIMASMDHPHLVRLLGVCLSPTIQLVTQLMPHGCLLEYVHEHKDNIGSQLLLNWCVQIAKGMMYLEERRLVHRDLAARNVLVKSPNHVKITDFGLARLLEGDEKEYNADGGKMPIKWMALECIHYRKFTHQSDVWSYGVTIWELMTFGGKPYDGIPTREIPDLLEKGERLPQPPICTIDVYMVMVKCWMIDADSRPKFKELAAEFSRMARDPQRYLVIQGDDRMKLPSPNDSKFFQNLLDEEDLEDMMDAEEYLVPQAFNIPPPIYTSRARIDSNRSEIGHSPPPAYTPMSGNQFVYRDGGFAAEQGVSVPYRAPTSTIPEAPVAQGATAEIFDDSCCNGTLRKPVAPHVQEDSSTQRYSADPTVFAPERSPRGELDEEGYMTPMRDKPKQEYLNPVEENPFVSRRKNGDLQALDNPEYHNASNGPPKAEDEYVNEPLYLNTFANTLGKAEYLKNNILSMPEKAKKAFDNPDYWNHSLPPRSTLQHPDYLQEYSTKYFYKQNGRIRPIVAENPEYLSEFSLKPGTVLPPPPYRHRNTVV

Each compound was assayed against ERBB4_R711C (clone: ERBB4_mut) (UniProt Q15303) (assay: kinase-Nluc reporter destabilization hit call (1 = scored as downregulated) (binary); higher = compound decreases kinase abundance). Conditions: K562; 2-18 h.
In the case of `O=c1[nH]c2ccccc2n1C1CCN(Cc2ccc(-c3[nH]c4cc5ncnc5cc4nc3-c3ccccc3)cc2)CC1` [AKT inhibitor VIII] (2.5 µM), the “kinase-Nluc reporter destabilization hit call” value is reported as inactive: 0. For `C[C@H]1CC[C@]2(NC1)O[C@H]1C[C@H]3[C@@H]4CC[C@H]5C[C@@H](O[C@@H]6O[C@H](CO)[C@H](O[C@@H]7O[C@H](CO)[C@@H](O)[C@H](O[C@@H]8OC[C@@H](O)[C@H](O)[C@H]8O)[C@H]7O[C@@H]7O[C@H](CO)[C@@H](O)[C@H](O)[C@H]7O)[C@H](O)[C@H]6O)CC[C@]5(C)[C@H]4CC[C@]3(C)[C@H]1[C@@H]2C` [Tomatine] (2.5 µM), the “kinase-Nluc reporter destabilization hit call” value was inactive: 0. With `C=C[C@H]1CN2CC[C@]3(C(=O)Nc4ccccc43)[C@@H]2C[C@@H]1/C(=C\OC)C(=O)OC` [Corynoxeine] (2 µM) the “kinase-Nluc reporter destabilization hit call” value was inactive: 0. With `C=CC(=O)Nc1ccc2[nH]c(=O)n(C3CCN(Cc4ccc(-c5nc6cc[nH]c(=O)c6cc5-c5ccccc5)cc4)CC3)c2c1` [Borussertib] (10 µM) the “kinase-Nluc reporter destabilization hit call” value was inactive: 0. For `CCOC(=O)c1c(/C(C#N)=C\N)c2ccc(Cl)c(Cl)c2n1C` (10 µM), the “kinase-Nluc reporter destabilization hit call” value was inactive: 0. `CC(=O)OC(C)(C)/C=C/C(=O)[C@](C)(O)[C@H]1[C@H](O)C[C@@]2(C)[C@@H]3CC=C4[C@@H](C=C(O)C(=O)C4(C)C)[C@]3(C)C(=O)C[C@]12C` [Cucurbitacin E] (2.5 µM) was tested, and the “kinase-Nluc reporter destabilization hit call” value was inactive: 0. For `Cc1[nH]ncc1-c1cc2nc([C@H]3CC4CCN3CC4)[nH]c(=O)c2s1` [(R)-Simurosertib] (10 µM), the “kinase-Nluc reporter destabilization hit call” value was inactive: 0. In the case of `C[C@H]1CC[C@]2(NC1)O[C@H]1C[C@H]3[C@@H]4CC[C@H]5C[C@@H](O)CC[C@]5(C)[C@H]4CC[C@]3(C)[C@H]1[C@@H]2C` [Tomatidine] (2 µM), the “kinase-Nluc reporter destabilization hit call” value is reported as inactive: 0. In the case of `O=Cc1cn(Cc2ccc(Cl)cc2)c2ccccc12` [Oncrasin-1] (10 µM), the “kinase-Nluc reporter destabilization hit call” value is reported as inactive: 0. `O=[N+]([O-])/C=C/c1ccc2c(c1)OCO2` (2.5 µM) was tested, and the “kinase-Nluc reporter destabilization hit call” value was inactive: 0. `CCN1CCN(C(=O)Cc2ccc(Nc3ncc(F)c(Nc4ccc(C(=O)Nc5ccccc5Cl)cc4)n3)cc2)CC1` (2.5 µM) was tested, and the “kinase-Nluc reporter destabilization hit call” value was inactive: 0. For `COc1ccc2c(c[n+](C)c3c4cc5c(cc4ccc23)OCO5)c1OC` [Chelerythrine (chloride)] (10 µM), the “kinase-Nluc reporter destabilization hit call” value was inactive: 0. `COC[C@H]1OC(=O)c2coc3c2[C@@]1(C)C1=C(C3=O)[C@@H]2CCC(=O)[C@@]2(C)C[C@H]1OC(C)=O` [Wortmannin] (2.5 µM) was tested, and the “kinase-Nluc reporter destabilization hit call” value was inactive: 0. In the case of `C[C@H]1CC[C@]2(NC1)O[C@H]1C[C@H]3[C@@H]4CC[C@H]5C[C@@H](O)CC[C@]5(C)[C@H]4CC[C@]3(C)[C@H]1[C@@H]2C` [Tomatidine (hydrochloride)] (10 µM), the “kinase-Nluc reporter destabilization hit call” value is reported as inactive: 0. `COc1ccc(/C=C/c2cc(OC)c(OC)c(OC)c2)cc1` (2.5 µM) was tested, and the “kinase-Nluc reporter destabilization hit call” value was inactive: 0. In the case of `O=c1cc(O)c2ccccc2o1` [4-Hydroxycoumarin] (10 µM), the “kinase-Nluc reporter destabilization hit call” value is reported as inactive: 0. With `C=CC(=O)N[C@H]1C=C(C)c2c(-c3cnc4ccccc4c3)c3c(N)ncnc3n2C1` (10 µM) the “kinase-Nluc reporter destabilization hit call” value was inactive: 0. `N#CC(C#N)=Cc1ccc([N+](=O)[O-])c(O)c1` (10 µM) was tested, and the “kinase-Nluc reporter destabilization hit call” value was inactive: 0. `O=C(O)c1sc2cc(Cl)ccc2c1Cl` (10 µM) was tested, and the “kinase-Nluc reporter destabilization hit call” value was inactive: 0. In the case of `Cc1n[nH]cc1-c1cc2nc([C@@H]3CC4CCN3CC4)[nH]c(=O)c2s1` [Simurosertib] (2.5 µM), the “kinase-Nluc reporter destabilization hit call” value is reported as inactive: 0. For `Cn1cc(C2=C(c3cn(C4CCN(Cc5ccccn5)CC4)c4ccccc34)C(=O)NC2=O)c2ccccc21` [Enzastaurin] (10 µM), the “kinase-Nluc reporter destabilization hit call” value was inactive: 0. `CN(C)C(=O)c1ccc(Cn2c(C(=O)O)cc3c(Br)cc(Sc4ccc(Cl)c(Cl)c4)cc32)cc1` [Rheb inhibitor NR1] (10 µM) was tested, and the “kinase-Nluc reporter destabilization hit call” value was inactive: 0. `C/C(O)=C(\C#N)C(=O)Nc1cc(Br)ccc1Br` (10 µM) was tested, and the “kinase-Nluc reporter destabilization hit call” value was inactive: 0. In the case of `O=C1c2ccccc2C(=O)c2c1cccc2-c1cnn(C2CCNCC2)c1` [PDK4-IN-1 (hydrochloride)] (10 µM), the “kinase-Nluc reporter destabilization hit call” value is reported as inactive: 0. In the case of `COc1ccc(N(C(=O)Oc2c(C)cccc2C)c2ccnc(Nc3ccc(N4CCN(C)CC4)cc3)n2)c(OC)c1` (2.5 µM), the “kinase-Nluc reporter destabilization hit call” value is reported as inactive: 0. For `C[C@@H]1CC[C@H]2[C@@H](C)C(=O)O[C@@H]3O[C@@]4(C)CC[C@@H]1[C@]32OO4` [Artemisinin] (10 µM), the “kinase-Nluc reporter destabilization hit call” value was inactive: 0. In the case of `CC(C)(C)c1cc(C=C(C#N)C#N)cc(Br)c1O` (2.5 µM), the “kinase-Nluc reporter destabilization hit call” value is reported as inactive: 0. In the case of `CC1=C[C@]23C(=O)[C@@H](C=C(CO)[C@@H](O)[C@]2(O)[C@H]1O)[C@H]1[C@@H](C[C@H]3C)C1(C)C` [Ingenol] (10 µM), the “kinase-Nluc reporter destabilization hit call” value is reported as inactive: 0.
